Some results were stated once for a whole list of compounds, not compound by compound.
Test system: cGMP-PDE
Test: cGMP-PDE inhibition assay, enzyme from HT-29 cultured tumor cells
Assay type: biochemical, human

COc1cc(C=C2C(C)=C(CC(=O)O)c3cc(F)ccc32)cc(OC)c1OC [Compound B, (Z)-5-Fluoro-2-methyl-1-(3,4,5-trimethoxybenzylidene)-3-acetic acid]
cGMP-PDE inhibition at a dose of 20 μM: greater than 50%

— patent publication US20020137722A1, “Method for treating a patient with neoplasia by treatment with a paclitaxel derivative” (priority 1998, published 2002)
